No constants are given. Whether binding was seen depends on the method and setting. In cells and extracts the contact can be indirect. Some entries that bind do so weakly or less than the wild type.
Legend:
[1] = target: eIF4A3 (human (endogenous in MCF7)) (UniProt P38919); assay: co-IP
[2] = target: T1, UPF1 (Up-frameshift Protein 1) (human (endogenous in MCF7)) (UniProt Q92900); assay: co-IP
T1 sequence: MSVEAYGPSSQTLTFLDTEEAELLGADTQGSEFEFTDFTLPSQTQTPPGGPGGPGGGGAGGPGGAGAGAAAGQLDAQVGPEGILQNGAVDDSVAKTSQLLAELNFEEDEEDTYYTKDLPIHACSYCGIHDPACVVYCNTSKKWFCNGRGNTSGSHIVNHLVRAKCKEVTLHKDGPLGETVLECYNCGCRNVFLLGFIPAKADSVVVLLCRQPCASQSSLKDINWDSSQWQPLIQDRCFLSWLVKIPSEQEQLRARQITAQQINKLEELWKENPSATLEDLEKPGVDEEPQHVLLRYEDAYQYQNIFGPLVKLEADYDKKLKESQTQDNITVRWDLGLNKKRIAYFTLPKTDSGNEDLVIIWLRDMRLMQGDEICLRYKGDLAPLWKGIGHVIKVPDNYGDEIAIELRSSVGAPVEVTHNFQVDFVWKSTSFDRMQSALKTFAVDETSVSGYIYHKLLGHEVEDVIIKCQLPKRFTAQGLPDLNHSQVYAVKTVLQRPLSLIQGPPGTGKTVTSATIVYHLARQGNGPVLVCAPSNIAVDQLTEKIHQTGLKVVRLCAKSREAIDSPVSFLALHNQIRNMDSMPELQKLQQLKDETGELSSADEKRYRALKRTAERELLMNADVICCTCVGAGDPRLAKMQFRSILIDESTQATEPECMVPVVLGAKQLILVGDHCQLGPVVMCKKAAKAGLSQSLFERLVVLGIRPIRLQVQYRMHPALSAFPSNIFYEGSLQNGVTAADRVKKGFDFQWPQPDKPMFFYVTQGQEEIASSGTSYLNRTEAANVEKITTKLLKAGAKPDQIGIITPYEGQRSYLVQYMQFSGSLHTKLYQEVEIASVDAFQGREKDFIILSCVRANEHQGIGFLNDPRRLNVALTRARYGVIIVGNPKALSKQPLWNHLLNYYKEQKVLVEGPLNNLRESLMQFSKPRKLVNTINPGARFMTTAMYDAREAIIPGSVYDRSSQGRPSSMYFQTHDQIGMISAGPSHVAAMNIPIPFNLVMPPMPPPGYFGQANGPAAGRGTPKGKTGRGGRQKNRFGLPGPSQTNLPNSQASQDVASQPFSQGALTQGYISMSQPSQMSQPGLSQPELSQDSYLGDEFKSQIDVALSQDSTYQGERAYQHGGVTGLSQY

The chains behind the UniProt entries cited, without tags or fusion partners.
UniProt P38919: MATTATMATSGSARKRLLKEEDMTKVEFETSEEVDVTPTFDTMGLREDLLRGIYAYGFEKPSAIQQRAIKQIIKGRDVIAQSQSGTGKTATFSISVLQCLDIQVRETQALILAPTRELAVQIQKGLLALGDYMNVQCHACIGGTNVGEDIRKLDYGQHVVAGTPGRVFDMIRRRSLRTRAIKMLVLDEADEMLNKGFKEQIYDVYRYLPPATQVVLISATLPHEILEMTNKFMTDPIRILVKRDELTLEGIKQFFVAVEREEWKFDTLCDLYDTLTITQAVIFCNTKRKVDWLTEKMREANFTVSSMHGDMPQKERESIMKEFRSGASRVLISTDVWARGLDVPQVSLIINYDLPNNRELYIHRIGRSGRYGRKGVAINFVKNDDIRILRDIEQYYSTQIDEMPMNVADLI

[3] = target: eIF4A3 (human (endogenous in MCF7)) (UniProt P38919); assay: proximity ligation

binding [1] | binding [2] | binding [3] | Substance
binds | binds | – | FRG1, ectopically expressed (PLX304_FRG1) (from UniProt Q14331 1-258)
– | binds | binds | FRG1 (FSHD Region Gene 1) (from UniProt Q14331 1-258)

— article doi:10.1101/2025.11.18.689056
